{"source": "the supplement of paper PMC8728848", "binders": {"B1": {"name": "SspB (Streptococcus gordonii), P16952 (protein)", "chain": "MKNKKEVYGFRKSKVAKTLCGAVLGTALIAFADKAVFADEVTETTSTSTVEVATTGNPATNLPEAQGEMSQVAKESQAKAGSKESALPVEVSSADLDKAVADAKSAGVKVVQDETKDKGTATTATDNAQKQDEIKSDYAKQAEEIKTTTEAYKKEVAAHQAETDKINAENKAADDKYQKDLKSHQEEVEKINTANATAKAEYEAKLAQYQKDLATVKKANEDSQQDYQNKLSAYQTELARVQKANAEAKEAYEKAVKENTAKNEALKVENEAIKQRNETAKATYEAAMKQYEADLAAIKKANEDNDADYQAKLAAYQTELARVQKANAEAKEAYDKAVKENTAKNTAIQAENEAIKQRNETAKATYDAAVKKYEADLAAVKQANATNEADYQAKLAAYQTELARVQKANADAKATYEKAVEDNKAKNAAIKAENEEIKQRNAVAKTDYEAKLAKYEADLAKYKKEFAAYTAALAEAESKKKQDGYLSEPRSQSLNFKSEPNAIRTIDSSVHQYGQQELDALVKSWGISPTNPDRKKSRAYSYFNAINSNNTYAKLVLEKDKPVDVTYTGLKNSSFNGKKISKVVYTYTLKETGFNDGTKMTMFASSDPTVTAWYNDYFTSTNINVKVKFYDEEGQLMNLTGGLVNFSSLNRGNGSGAIDKDAIESVRNFNGRYIPISGSSIKIHENNSAYADSSNAEKSLGARWNTSEWDTTSSPNNWYGAIVGEITQSEISFNMASSKSGNIWFAFNSNINAIGVPTKPVAPTAPTQPMYETEKPLEPAPVAPSYENEPTPPVKTPDQPEPSKPEEPTYETEKPLEPAPVAPSYENEPTPPVKTPDQPEPSKPEEPNYETEKPLEPAPVAPSYENEPTPPVKIPDQPEPSKPEEPTYDPLPTPPLAPTPKQLPTPPVVPTVHFHYSSLLAQPQINKEIKNEDGVDIDRTLVAKQSIVKFELKTEALTAGRPKTTSFVLVDPLPTGYKFDLDATKAASTGFDTTYDEASHTVTFKATDETLATYNADLTKPVETLHPTVVGRVLNDGATYTNNFTLTVNDAYGIKSNVVRVTTPGKPNDPDNPNNNYIKPTKVNKNKEGLNIDGKEVLAGSTNYYELTWDLDQYKGDKSSKEAIQNGFYYVDDYPEEALDVRPDLVKVADEKGNQVSGVSVQQYDSLEAAPKKVQDLLKKANITVKGAFQLFSADNPEEFYKQYVATGTSLVITDPMTVKSEFGKTGGKYENKAYQIDFGNGYATEVVVNNVPKITPKKDVTVSLDPTSENLDGQTVQLYQTFNYRLIGGLIPQNHSEELEDYSFVDDYDQAGDQYTGNYKTFSSLNLTMKDGSVIKAGTDLTSQTTAETDATNGIVTVRFKEDFLQKISLDSPFQAETYLQMRRIAIGTFENTYVNTVNKVAYASNTVRTTTPIPRTPDKPTPIPTPKPKDPDKPETPKEPKVPSPKVEDPSAPIPVSVGKELTTLPKTGTNDATYMPYLGLAALVGFLGLGLAKRKED"}}, "assay_in_all_cases": "glycan array binding signal (z-score within array); higher = stronger binding", "conditions_in_all_cases": "glycan notation: IUPAC condensed, linker removed", "key": {"Fuc(a1-2)Gal": {"molecular_target": "Fuc(a1-2)Gal", "method_in_brief": "(§1)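 Negative Z-scores can be read as non-binding. The Z-score is calculated within each array and then averaged across arrays of one protein sequence at different concentrations or buffers and across linkers. Arrays, 3228 in all, were curated from the Consortium for Functional Glycomics database and kept only where the protein sequence was available.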"}, "Fuc(a1-2)Gal(b1-3)GalNAc": {"molecular_target": "Fuc(a1-2)Gal(b1-3)GalNAc", "method_in_brief": "as §1"}, "[1]": {"molecular_target": "Fuc(a1-2)Gal(b1-3)GalNAc(a1-3)[Fuc(a1-2)]Gal(b1-4)Glc", "method_in_brief": "as §1"}, "[2]": {"molecular_target": "Fuc(a1-2)Gal(b1-3)GalNAc(a1-3)[Fuc(a1-2)]Gal(b1-4)GlcNAc", "method_in_brief": "as §1"}, "[3]": {"molecular_target": "Fuc(a1-2)Gal(b1-3)GalNAc(b1-3)Gal", "method_in_brief": "as §1"}, "[4]": {"molecular_target": "Fuc(a1-2)Gal(b1-3)GalNAc(b1-3)Gal(a1-4)Gal(b1-4)Glc", "method_in_brief": "as §1"}, "[5]": {"molecular_target": "Fuc(a1-2)Gal(b1-3)GalNAc(b1-4)[Neu5Ac(a2-3)]Gal(b1-4)Glc", "method_in_brief": "as §1"}, "Fuc(a1-2)Gal(b1-3)GlcNAc": {"molecular_target": "Fuc(a1-2)Gal(b1-3)GlcNAc", "method_in_brief": "as §1"}, "[6]": {"molecular_target": "Fuc(a1-2)Gal(b1-3)GlcNAc(b1-2)Man(a1-3)[Fuc(a1-2)Gal(b1-3)GlcNAc(b1-2)Man(a1-6)]Man(b1-4)GlcNAc(b1-4)GlcNAc", "method_in_brief": "as §1"}, "[7]": {"molecular_target": "Fuc(a1-2)Gal(b1-3)GlcNAc(b1-3)Gal(b1-4)Glc", "method_in_brief": "as §1"}, "[8]": {"molecular_target": "Fuc(a1-2)Gal(b1-3)GlcNAc(b1-3)[Fuc(a1-3)[Gal(b1-4)]GlcNAc(b1-6)]Gal(b1-4)Glc", "method_in_brief": "as §1"}, "[9]": {"molecular_target": "Fuc(a1-2)Gal(b1-3)[Fuc(a1-4)]GlcNAc", "method_in_brief": "as §1"}, "[10]": {"molecular_target": "Fuc(a1-2)Gal(b1-3)[Fuc(a1-4)]GlcNAc(b1-2)Man(a1-3)[Fuc(a1-2)Gal(b1-3)[Fuc(a1-4)]GlcNAc(b1-2)Man(a1-6)]Man(b1-4)GlcNAc(b1-4)GlcNAc", "method_in_brief": "as §1"}, "[11]": {"molecular_target": "Fuc(a1-2)Gal(b1-3)[Fuc(a1-4)]GlcNAc(b1-3)[Fuc(a1-3)[Gal(b1-4)]GlcNAc(b1-6)]Gal(b1-4)Glc", "method_in_brief": "as §1"}, "[12]": {"molecular_target": "Fuc(a1-2)Gal(b1-3)[Fuc(a1-4)]GlcNAc(b1-3)[Gal(b1-4)GlcNAc(b1-6)]Gal(b1-4)Glc", "method_in_brief": "as §1"}, "Fuc(a1-2)Gal(b1-4)Glc": {"molecular_target": "Fuc(a1-2)Gal(b1-4)Glc", "method_in_brief": "as §1"}, "Fuc(a1-2)Gal(b1-4)Glc6S": {"molecular_target": "Fuc(a1-2)Gal(b1-4)Glc6S", "method_in_brief": "as §1"}, "Fuc(a1-2)Gal(b1-4)GlcNAc": {"molecular_target": "Fuc(a1-2)Gal(b1-4)GlcNAc", "method_in_brief": "as §1"}, "[13]": {"molecular_target": "Fuc(a1-2)Gal(b1-4)GlcNAc(b1-2)Man(a1-3)[Fuc(a1-2)Gal(b1-4)GlcNAc(b1-2)Man(a1-6)]Man(b1-4)GlcNAc(b1-4)GlcNAc", "method_in_brief": "as §1"}, "[14]": {"molecular_target": "Fuc(a1-2)Gal(b1-4)GlcNAc(b1-3)Gal(b1-4)GlcNAc", "method_in_brief": "as §1"}, "[15]": {"molecular_target": "Fuc(a1-2)Gal(b1-4)GlcNAc(b1-3)Gal(b1-4)GlcNAc(b1-3)Gal(b1-4)GlcNAc", "method_in_brief": "as §1"}, "[16]": {"molecular_target": "Fuc(a1-2)Gal(b1-4)GlcNAc(b1-3)GalNAc", "method_in_brief": "as §1"}, "[17]": {"molecular_target": "Fuc(a1-2)Gal(b1-4)GlcNAc6S", "method_in_brief": "as §1"}, "[18]": {"molecular_target": "Fuc(a1-2)Gal(b1-4)[Fuc(a1-3)]GlcNAc", "method_in_brief": "as §1"}, "[19]": {"molecular_target": "Fuc(a1-2)Gal(b1-4)[Fuc(a1-3)]GlcNAc(b1-2)Man(a1-3)[Fuc(a1-2)Gal(b1-4)[Fuc(a1-3)]GlcNAc(b1-2)Man(a1-6)]Man(b1-4)GlcNAc(b1-4)GlcNAc", "method_in_brief": "as §1"}, "[20]": {"molecular_target": "Fuc(a1-2)Gal(b1-4)[Fuc(a1-3)]GlcNAc(b1-3)Gal(b1-4)[Fuc(a1-3)]GlcNAc", "method_in_brief": "as §1"}, "[21]": {"molecular_target": "Fuc(a1-2)Gal(b1-4)[Fuc(a1-3)]GlcNAc(b1-3)Gal(b1-4)[Fuc(a1-3)]GlcNAc(b1-3)Gal(b1-4)[Fuc(a1-3)]GlcNAc", "method_in_brief": "as §1"}, "Fuc(a1-2)Gal6S(b1-4)Glc": {"molecular_target": "Fuc(a1-2)Gal6S(b1-4)Glc", "method_in_brief": "as §1"}, "[22]": {"molecular_target": "Fuc(a1-2)Gal6S(b1-4)Glc6S", "method_in_brief": "as §1"}, "[23]": {"molecular_target": "Fuc(a1-2)Gal6S(b1-4)GlcNAc", "method_in_brief": "as §1"}}, "note": "The other results are listed elsewhere or left out.", "data": [{"binder": "B1", "values": [{"measurement": "glycan array binding signal (z-score)", "setting": "Fuc(a1-2)Gal", "value": -1.2}, {"measurement": "glycan array binding signal (z-score)", "setting": "Fuc(a1-2)Gal(b1-3)GalNAc", "value": -0.545}, {"measurement": "glycan array binding signal (z-score)", "setting": "[1]", "value": 1.87}, {"measurement": "glycan array binding signal (z-score)", "setting": "[2]", "value": -0.567}, {"measurement": "glycan array binding signal (z-score)", "setting": "[3]", "value": -0.306}, {"measurement": "glycan array binding signal (z-score)", "setting": "[4]", "value": 0.643}, {"measurement": "glycan array binding signal (z-score)", "setting": "[5]", "value": -0.37}, {"measurement": "glycan array binding signal (z-score)", "setting": "Fuc(a1-2)Gal(b1-3)GlcNAc", "value": -1.03}, {"measurement": "glycan array binding signal (z-score)", "setting": "[6]", "value": -0.918}, {"measurement": "glycan array binding signal (z-score)", "setting": "[7]", "value": 0.184}, {"measurement": "glycan array binding signal (z-score)", "setting": "[8]", "value": 1.82}, {"measurement": "glycan array binding signal (z-score)", "setting": "[9]", "value": 0.647}, {"measurement": "glycan array binding signal (z-score)", "setting": "[10]", "value": -0.314}, {"measurement": "glycan array binding signal (z-score)", "setting": "[11]", "value": -0.658}, {"measurement": "glycan array binding signal (z-score)", "setting": "[12]", "value": 0.034}, {"measurement": "glycan array binding signal (z-score)", "setting": "Fuc(a1-2)Gal(b1-4)Glc", "value": 0.44}, {"measurement": "glycan array binding signal (z-score)", "setting": "Fuc(a1-2)Gal(b1-4)Glc6S", "value": -0.928}, {"measurement": "glycan array binding signal (z-score)", "setting": "Fuc(a1-2)Gal(b1-4)GlcNAc", "value": -0.118}, {"measurement": "glycan array binding signal (z-score)", "setting": "[13]", "value": -1.19}, {"measurement": "glycan array binding signal (z-score)", "setting": "[14]", "value": -0.608}, {"measurement": "glycan array binding signal (z-score)", "setting": "[15]", "value": -0.303}, {"measurement": "glycan array binding signal (z-score)", "setting": "[16]", "value": -0.329}, {"measurement": "glycan array binding signal (z-score)", "setting": "[17]", "value": 1.3}, {"measurement": "glycan array binding signal (z-score)", "setting": "[18]", "value": 0.357}, {"measurement": "glycan array binding signal (z-score)", "setting": "[19]", "value": 1.22}, {"measurement": "glycan array binding signal (z-score)", "setting": "[20]", "value": -0.255}, {"measurement": "glycan array binding signal (z-score)", "setting": "[21]", "value": 1.55}, {"measurement": "glycan array binding signal (z-score)", "setting": "Fuc(a1-2)Gal6S(b1-4)Glc", "value": 1.12}, {"measurement": "glycan array binding signal (z-score)", "setting": "[22]", "value": 1.29}, {"measurement": "glycan array binding signal (z-score)", "setting": "[23]", "value": -0.04}]}]}
